Reference: publication PMC3357945
Results are given in words; binding and its absence hold for the method and conditions named. For some of these results: In cells and extracts the contact can be indirect. Some binding calls cover weakened binding; strength is not graded here. For some of these results: Sequences can lack the tags named with a protein. One block for each substance: values may come before it.

Sequences of proteins named here, by UniProt entry; tags and fusion partners are left off. Residues count along the entry.
MAP1B-LC1-myc (MAP1B aa2216-2464 in pcDNA3.1) (P14873, residues 2216-2464): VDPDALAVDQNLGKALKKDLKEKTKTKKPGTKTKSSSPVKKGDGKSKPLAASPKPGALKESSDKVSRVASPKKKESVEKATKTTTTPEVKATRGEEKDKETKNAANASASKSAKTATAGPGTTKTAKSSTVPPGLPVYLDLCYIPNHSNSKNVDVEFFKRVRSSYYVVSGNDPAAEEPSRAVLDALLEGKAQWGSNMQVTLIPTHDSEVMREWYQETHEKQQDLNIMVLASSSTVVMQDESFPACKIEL
His6-MAP1B aa2227-2464 (PET6H) (P14873, residues 2227-2464): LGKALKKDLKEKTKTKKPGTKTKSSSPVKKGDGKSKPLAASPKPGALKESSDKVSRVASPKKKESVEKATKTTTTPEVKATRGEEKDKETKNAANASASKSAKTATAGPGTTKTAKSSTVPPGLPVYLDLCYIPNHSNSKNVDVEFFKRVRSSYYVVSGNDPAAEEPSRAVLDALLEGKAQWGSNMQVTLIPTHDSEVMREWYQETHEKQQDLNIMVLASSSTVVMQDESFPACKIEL
MAP1B light chain (MAP1B-LC1) library clone aa2238-2465 in pGADT7 (P14873, residues 2238-2464): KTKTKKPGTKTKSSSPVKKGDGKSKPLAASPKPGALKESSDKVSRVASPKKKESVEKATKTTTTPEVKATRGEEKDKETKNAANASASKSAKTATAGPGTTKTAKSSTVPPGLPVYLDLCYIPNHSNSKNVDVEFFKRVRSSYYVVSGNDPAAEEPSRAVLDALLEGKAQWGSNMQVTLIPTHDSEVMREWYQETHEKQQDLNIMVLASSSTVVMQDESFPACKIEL

Experiments:
[1] = biological target: T1, GST-Nbr1 aa346-498 (FW domain, pGEX2T) (UniProt P97432); assay: pull-down; purified GST or GST-Nbr1 aa346-498 on glutathione agarose beads, incubated with purified His6-MAP1B aa2227-2464 in 50 mM Tris pH 7.5, 150 mM NaCl, 0.5% NP-40, 2 hours at 4°C; blot anti-His; both purified
T1 sequence: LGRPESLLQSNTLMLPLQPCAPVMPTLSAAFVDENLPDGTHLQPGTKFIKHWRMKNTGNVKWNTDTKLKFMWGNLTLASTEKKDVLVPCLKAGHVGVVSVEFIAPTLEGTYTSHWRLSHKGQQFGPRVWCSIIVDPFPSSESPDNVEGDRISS

[2] = biological target: T2, Nbr1 aa346-498 (FW domain) yeast two-hybrid bait in pGBKT7 (UniProt P97432); assay: two-hybrid; directed retransformation and mating assay; growth on SD medium lacking leucine, tryptophan, histidine and adenine, 30°C
T2 sequence: T1 sequence

[3] = biological target: T2, Nbr1 aa346-498 (FW domain) yeast two-hybrid bait in pGBKT7; assay: two-hybrid; library screen: Nbr1 aa346-498 bait in Y187 mated with a mouse neonatal calvarial cDNA library in AH109; HIS3 reporter gene activity, replated three times, inserts sequenced
[4] = biological target: T1, GST-Nbr1 aa346-498 (FW domain, pGEX2T); assay: pull-down; GST-Nbr1 aa346-498 or GST alone on beads, incubated with lysate of COS7 cells transfected with MAP1B-myc, 2 hours at 4°C; washes 50 mM Tris pH 7.5, 200 mM NaCl, 0.5% NP-40; blot anti-myc; only the target purified

binding [1]: binds
Substance: His6-MAP1B aa2227-2464 (PET6H) (from UniProt P14873 2227-2464) (domain or fragment)

Substance: MAP1B light chain (MAP1B-LC1) library clone aa2238-2465 in pGADT7 (from UniProt P14873 2238-2464) (domain or fragment)
binding [2]: binds
binding [3]: binds

Substance: MAP1B-LC1-myc (MAP1B aa2216-2464 in pcDNA3.1) (from UniProt P14873 2216-2464) (domain or fragment)
binding [4]: binds
